Measurements from publication PMC11040665, “Aminothiazolone Inhibitors Disrupt the Protein–RNA Interaction of METTL16 and Modulate the m^6A RNA Modification” (JACS Au, 2024).

Experiments:
[1] = target: T1, METTL16 MTD (methyltransferase domain) (Homo sapiens) (UniProt Q86W50); test: competition FP; conditions: vs FAM-MAT2A-hp1, less potent than pre-miR-17-hp; 20 mM HEPES pH 7.5, 50 mM NaCl, 0.05% Tween 20, 0.05 mg/mL BGG, room temperature; EMSA […] native PAGE 0.5x TBE at 4 C; recombinant protein; residues 1-291
T1 sequence (looked up): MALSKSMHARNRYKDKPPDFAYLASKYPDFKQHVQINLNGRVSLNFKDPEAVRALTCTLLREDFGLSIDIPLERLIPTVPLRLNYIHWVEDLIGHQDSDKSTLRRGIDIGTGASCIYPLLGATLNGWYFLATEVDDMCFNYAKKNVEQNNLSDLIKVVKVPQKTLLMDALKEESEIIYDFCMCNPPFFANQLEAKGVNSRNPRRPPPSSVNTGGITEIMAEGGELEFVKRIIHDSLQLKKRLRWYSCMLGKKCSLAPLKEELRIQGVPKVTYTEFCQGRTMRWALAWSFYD

[2] = target: T1, METTL16 MTD (methyltransferase domain) (Homo sapiens); test: EMSA; conditions: 20 mM HEPES pH 7.5, 50 mM NaCl, 0.05% Tween 20, 0.05 mg/mL BGG, room temperature; EMSA […] native PAGE 0.5x TBE at 4 C; recombinant protein; residues 1-291; label: FAM (5')

| Sequence | binding result [1] | binding result [2] |
| --- | --- | --- |
| GUGCAGGUAGAUGAUAUGUGCAUCUACCUGCAC [pre-miR-17-hp bp] | binds more weakly | – |
| UUCUUCUGUGGACUGUG [FAM-GGACU-RNA] | – | binds more weakly |

Weaker means in comparison with the reference protein, sequence or condition of that experiment. Tags and fusion partners may be left off the protein sequences shown.
